# Results deposited as PubChem BioAssay AID1259308 (NCATS, 2017).
# Test: 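Knock-downs that increase output of a recombinant reporter protein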 (primary screen)
# Cell system: human HEK293 embryonic kidney cells stably expressing firefly luciferase (HEK-CMV-Luc2-Hygro)
# Reagent: single siRNA against human genes, 0.8 pmol siRNA per well
# Duration: 72 h
# Detection: 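Reporter luminescence and viable-cell signal on separate replicate plates, given as percent of non-targeting control and median/MAD z-scores, plus per-cell luciferase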
# Scale: total luciferase, z-score and total luciferase, % of control: higher = more reporter protein produced; luciferase per cell, z-score: higher = more reporter output per viable cell
# Call rule: 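An siRNA counts as active if its total luciferase robust z-score exceeds 3; genes with two or more such siRNAs out of three were retested with fresh siRNAs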
# Calls: active = raised luciferase; inactive = no rise
# The whole screen tested about 59,000 reagents; this is an unselected part. About 1,510 of them (2.6%) count as active. 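Calls use total luciferase alone and ignore viability, so some active siRNAs may act by altering cell number.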 The numbers tell different reagents against one gene apart. Further read-outs or replicates are left out here.
Target gene,reagent no.,"total luciferase, z-score","total luciferase, % of control","luciferase per cell, z-score",Outcome
SERTM1 (serine rich and transmembrane domain containing 1),1,2.58,133,1.8,inactive
SERTM1 (serine rich and transmembrane domain containing 1),2,0.804,97.9,1.05,inactive
SERTM1 (serine rich and transmembrane domain containing 1),3,-0.0346,81.2,-0.53,inactive
IRAK1 (interleukin 1 receptor associated kinase 1),1,-0.964,62.7,0.0166,inactive
IRAK1 (interleukin 1 receptor associated kinase 1),2,-0.502,71.9,-0.0899,inactive
IRAK1 (interleukin 1 receptor associated kinase 1),3,0.306,88,0.222,inactive
PRIM2 (DNA primase subunit 2),1,0.443,90.7,0.589,inactive
PRIM2 (DNA primase subunit 2),2,-1.58,50.4,-2.09,inactive
PRIM2 (DNA primase subunit 2),3,-0.543,71.1,-0.806,inactive
ATOSA (atos homolog A),1,0.27,87.3,-0.31,inactive
ATOSA (atos homolog A),2,-0.16,78.7,0.134,inactive
ATOSA (atos homolog A),3,-0.00553,81.8,-0.147,inactive
LGR5 (leucine rich repeat containing G protein-coupled receptor 5),1,1.54,113,3.05,inactive
LGR5 (leucine rich repeat containing G protein-coupled receptor 5),2,-1.06,60.9,-1.41,inactive
LGR5 (leucine rich repeat containing G protein-coupled receptor 5),3,0.347,88.8,-0.0725,inactive
POLM (DNA polymerase mu),1,-0.571,70.5,-0.438,inactive
POLM (DNA polymerase mu),2,0.698,95.8,0.706,inactive
POLM (DNA polymerase mu),3,-0.685,68.3,-0.734,inactive
DNAH8 (dynein axonemal heavy chain 8),1,1.66,115,1.87,inactive
DNAH8 (dynein axonemal heavy chain 8),2,0.319,88.2,-0.0596,inactive
DNAH8 (dynein axonemal heavy chain 8),3,1.53,112,0.382,inactive
SEMA4B (semaphorin 4B),1,1.13,104,0.0898,inactive
SEMA4B (semaphorin 4B),2,0.76,97,0.498,inactive
SEMA4B (semaphorin 4B),3,-0.979,62.4,-0.372,inactive
CSRNP2 (cysteine and serine rich nuclear protein 2),1,1.01,102,0.378,inactive
CSRNP2 (cysteine and serine rich nuclear protein 2),2,0.4,89.8,0.0306,inactive
CSRNP2 (cysteine and serine rich nuclear protein 2),3,0.708,96,0.333,inactive
RGS4 (regulator of G protein signaling 4),1,0.277,87.4,-0.695,inactive
RGS4 (regulator of G protein signaling 4),2,1.29,108,0.617,inactive
RGS4 (regulator of G protein signaling 4),3,-1.82,45.7,0.00424,inactive
RNF126 (ring finger protein 126),1,0.111,84.1,0.643,inactive
RNF126 (ring finger protein 126),2,0.509,92,1.49,inactive
RNF126 (ring finger protein 126),3,0.981,101,0.861,inactive
ZFP36 (ZFP36 zinc finger CCCH-type),1,1.61,114,0.967,inactive
ZFP36 (ZFP36 zinc finger CCCH-type),2,-0.6,70,-0.144,inactive
ZFP36 (ZFP36 zinc finger CCCH-type),3,0.0197,82.3,-0.532,inactive
CCDC127 (coiled-coil domain containing 127),1,-0.312,75.7,-0.236,inactive
CCDC127 (coiled-coil domain containing 127),2,-0.00284,81.8,0.16,inactive
CCDC127 (coiled-coil domain containing 127),3,0.367,89.2,0.0512,inactive
TEDC1 (tubulin epsilon and delta complex 1),1,3.18,145,1.61,active
TEDC1 (tubulin epsilon and delta complex 1),2,2.76,137,2.03,inactive
TEDC1 (tubulin epsilon and delta complex 1),3,-0.548,71,-0.581,inactive
EPHA2 (EPH receptor A2),1,-0.344,75,-0.0133,inactive
EPHA2 (EPH receptor A2),2,0.251,86.9,0.0564,inactive
EPHA2 (EPH receptor A2),3,-0.107,79.8,-0.625,inactive
RSPH10B (radial spoke head 10 homolog B),1,1.47,111,1.05,inactive
RSPH10B (radial spoke head 10 homolog B),2,0.751,96.8,0.206,inactive
RSPH10B (radial spoke head 10 homolog B),3,-0.445,73,-0.32,inactive
TMEM109 (transmembrane protein 109),1,0.411,90.1,0.702,inactive
TMEM109 (transmembrane protein 109),2,0.157,85,-0.288,inactive
TMEM109 (transmembrane protein 109),3,-0.259,76.7,1.12,inactive
GNG3 (G protein subunit gamma 3),1,-0.00827,81.7,-0.563,inactive
GNG3 (G protein subunit gamma 3),2,-0.19,78.1,-0.0229,inactive
GNG3 (G protein subunit gamma 3),3,0.648,94.8,0.832,inactive
BRIP1 (BRCA1 interacting DNA helicase 1),1,-1.17,58.6,-1.43,inactive
BRIP1 (BRCA1 interacting DNA helicase 1),2,1.04,103,0.923,inactive
BRIP1 (BRCA1 interacting DNA helicase 1),3,0.911,100,0.33,inactive
